In patent US10787465B2, “Lanthanide toolbox for organelle specific molecular imaging with multi-color” (New Life Medicine Technology Company Limited, priority 2017, dated 2020):
Some entries share one result that the patent states for a list of compounds.

Columns and labels:
Type in all cases: cell-based, Human
Details in all cases: Incubation time = 24 hours
QSG-7701 cells = experiment: MTT cell cytotoxicity assay, QSG-7701
Procedure: (§1) Human cervical cancer HeLa cells were grown in Dulbecco's Modified Eagle Medium (DMEM). Human lung normal diploid fibroblasts MRC-5 and neuroblastoma cells SK-N-SH were provided by Cell resource center of Shanghai Institute of Biological Sciences, Chinese Academy of Sciences; and cultured in MEM (GIBCO 41500034); Human derived liver cells QSG-7701 cells were grown in RPMI-1640 (GIBCO 31800022); all cells were supplemented with 10% (v/v) fetal bovine serum, 1% penicillin and streptomycin at 37° C. and 5% CO2.
(§2) HeLa, SKA-SH, QSG-7701 or MRC-5 cells treated with testing complexes for 24 hours were further incubated with MTT, 3-(4,5-dimethylthiazol-2-yl)-2 and 5-diphenyltetrazolium bromide (0.5 mg; ml) for 4 hours, to produce formazan during cell metabolism. Then, formazan was thoroughly dissolved by dimethyl sulfoxide (DMSO), and the absorbance of solutions was measured in Bio-Rad iMark microplate reader (570 nm). Quadruplicates were performed. Data analysis and plotting were operated by the GraphPad Prism 5 software.

MRC-5 cells = experiment: MTT cell cytotoxicity assay, MRC-5
Procedure: as §1, §2

SK-N-SH cells = experiment: MTT cell cytotoxicity assay, SK-N-SH
Procedure: as §1, §2

HeLa cells = experiment: MTT cell cytotoxicity assay, HeLa
Procedure: as §1, §2

Measured: IC50

CC(C)(C)NC(=O)CN1CCN(CC(=O)NC(C)(C)C)CCN(Cc2cc(C#Cc3ccc(NC(=O)c4ccc(C(F)(F)F)cc4)cc3)ccn2)CCN(CC(=O)NC(C)(C)C)CC1.O.[Cl-].[Cl-].[Cl-].[Eu+3] [HGEu002]
390 to 440 µM: all assays above
